Measured values from article PMC3103426.
Results are given in words; binding and its absence hold for the method and conditions named. A result given as binding can be weak or reduced; the word gives no strength.

How the values were obtained:
Experiment in all cases: two-hybrid; GAL4 binding domain baits (pDEST32) in yeast PJ69-4α systematically mated with GAL4 activating domain preys (pDEST22) in PJ69-4a; growth scored on SC lacking Trp, Leu and His with 0, 1, 3 or 5 mM 3-amino-1,2,4-triazole, four days at 20°C; in duplicate; SEP4 bait excluded (auto-activation)
[1] = molecular target: Actinidia AG (not stated (EST from A. arguta; full-length cDNA isolated from A. chinensis)) (UniProt F4ZKM4)
[2] = molecular target: Actinidia FUL (not stated (ESTs from A. chinensis and A. arguta)) (UniProt F4ZKM0)
[3] = molecular target: Actinidia SEP3 (Actinidia chinensis) (UniProt F4ZKM5)

binding [1]: binds weakly
binding [2]: binds
binding [3]: binds weakly
Substance: Actinidia SEP4 (from UniProt F4ZKM7)
